Earlier results, collected in patent US20250177318A1, “CMT-3 FORMULATIONS AND METHODS OF USING THE SAME” (The Research Foundation for the State University of New York, priority 2022, published 2025).
At least one structure is not confirmed: it was looked up by name or label, or the drawing left a doubt.

Key:
IL-18 = conditions: patients with direct ARDS, ex vivo; cited from earlier work
IL-1β = conditions: patients with direct ARDS, ex vivo; cited from earlier work

In the case of `CN(C)[C@@H]1C(O)=C(C(N)=O)C(=O)[C@@]2(O)C(O)=C3C(=O)c4c(O)cccc4[C@@](C)(O)[C@H]3C[C@@H]12` [Tetracycline], the IL-18 levels (IL-18) is listed as “reduces” and the IL-1β levels (IL-1β) is listed as “reduces”.
